# Data from PubChem BioAssay AID651640 (Broad Institute, 2012).
# The campaign covered roughly 350,000 compounds. About 6,000 (1.7%) were called active. This list was built around the results that the source calls inconclusive (neither active nor inactive); the mix of calls is not that of the screen. Cut-off read from the data, not from the text of the source: active = CPE inhibition above about 20% (passing the limit was not always enough); inconclusive = no clear call, values can overlap the other calls; tested in BHK-21 cells.
# Assay: protection of cells from dengue 2 killing – plate reader, single concentration, primary screen (AID 651640);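 note: 0% = median of neutral control wells and 100% = median of positive control wells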
# Settings: DENV2-infected cells, cytopathic effect rescue, at 9.99 µM, active compounds read high
row,Structure (SMILES),CPE inhibition
1,COc1cc(OC)cc(C(=O)Nn2cc(C(=O)Nc3ccccc3F)c3ccccc3c2=O)c1,inconclusive: 24.4%
2,CO[C@H]1CN(C)C(=O)c2ccc(NS(C)(=O)=O)cc2OC[C@@H](C)N(CCC(F)(F)F)C[C@H]1C,inactive: -0.591%
3,CCc1ccnc(NS(=O)(=O)c2ccc3c(c2)CCO3)c1,inconclusive: 20.3%
4,Nc1c(C(=O)N/N=C/c2ccc([N+](=O)[O-])cc2)cnn1-c1ccccc1,active: 45.9%
5,C[C@@H]1CN([C@H](C)CO)C(=O)c2cc(NC(=O)Nc3ccc(F)cc3)ccc2O[C@H]1CN(C)S(=O)(=O)c1ccccc1,inconclusive: 48.8%
6,CCN(C[C@H]1N[C@@](C)(C(=O)OC)[C@H]2C(=O)N(C)C(=O)[C@@H]12)C(=O)COc1ccccc1,inconclusive: 40.9%
7,C[C@@H]1CCCCO[C@H](CN(C)C(=O)Nc2ccc(C(F)(F)F)cc2)[C@H](C)CN([C@H](C)CO)C(=O)c2cc(NC(=O)C3CCCCC3)ccc2O1,active: 32.4%
8,COc1ccc(CN(C)C[C@H]2Oc3ccc(NC(=O)Nc4ccc(OC)cc4)cc3CC(=O)N([C@H](C)CO)C[C@@H]2C)cc1,inconclusive: 33.4%
9,Cc1cc(NS(=O)(=O)c2ccc(NC(=O)COc3cc(C)c(Cl)c(C)c3)cc2)no1,inconclusive: 79.7%
10,O=S(=O)(c1ccccc1)N1CCCCN2[C@H](CO)[C@H](c3ccc(-c4cncnc4)cc3)[C@@H]2C1,active: 33.3%
11,COCC#Cc1cnc2c(c1)C(=O)N([C@H](C)CO)C[C@H](C)[C@H](CN(C)S(C)(=O)=O)O2,inactive: -1.67%
12,C[C@@H]1CN([C@H](C)CO)C(=O)Cc2cc(NC(=O)Nc3cccc4ccccc34)ccc2O[C@@H]1CN(C)CC1CC1,inactive: -3.64%
13,CCC(=O)N[C@@H]1CC[C@@H](CC(=O)NCC2CC2)O[C@@H]1CO,inconclusive: 32.6%
14,Cc1cc(NC(=O)c2ccc(C(C)(C)C)cc2)no1,inconclusive: 35.7%
15,O=C(NC(=S)Nc1cc(Cl)ccc1N1CCOCC1)c1ccccc1[N+](=O)[O-],inactive: 0.255%
16,C[C@@H]1CCCCO[C@H](CN(C)C)[C@H](C)CN([C@H](C)CO)C(=O)c2cc(NC(=O)c3ccccc3)ccc2O1,inconclusive: 23.2%
17,COc1ccc(NC(=O)Nc2ccc3c(c2)C(=O)N([C@H](C)CO)C[C@H](C)[C@H](CN(C)S(=O)(=O)c2cn(C)cn2)OCCCC[C@@H](C)O3)cc1,inconclusive: 30.8%
18,Cc1cc(C)c2c(=O)c(C#N)coc2c1,inconclusive: 23.9%
19,C[C@H](CO)N1C[C@H](C)[C@H](CN(C)Cc2ccccc2)OCCCC[C@H](C)Oc2ccc(NC(=O)NC3CCCCC3)cc2C1=O,active: 29.2%
20,CN(C(=O)Cc1c(C(=O)O)n(C)c2ccccc12)c1cccc(C(F)(F)F)c1,inconclusive: 46.8%
21,C[C@@H]1CN([C@H](C)CO)S(=O)(=O)c2ccc(C#Cc3ccncc3)cc2O[C@H]1CN(C)C(=O)C1CCC1,inactive: 3.1%
22,O=[N+]([O-])c1ccc(SN2CCCCC2)c([N+](=O)[O-])c1,inconclusive: 71.5%
23,Cc1noc(C)c1NC(=O)N(C)C[C@@H]1Oc2ccc(NC(=O)NC3CCCCC3)cc2CC(=O)N([C@H](C)CO)C[C@H]1C,active: 31.9%

row,Structure (SMILES),CPE inhibition
1,CCOC(=O)c1sc(NC(=O)C(CC)OC(=O)c2ccco2)nc1C (stereo not drawn),inactive: -3.57%
2,Cc1ccc([N+](=O)[O-])cc1NC(=O)c1ccc(C(C)(C)C)cc1,inactive: 1.92%
3,Nc1ccccc1Nc1cc(-c2ccccc2)nn1-c1cccc(Cl)c1,active: 20.3%
4,CNC[C@H]1Oc2cc(C#CC(C)(C)O)ccc2S(=O)(=O)N([C@@H](C)CO)C[C@@H]1C,active: 29.3%
5,Cc1ccccc1CC(=O)Nc1ccc(C(=O)N2CCCC2)cc1,inconclusive: 46.1%
6,COC(=O)[C@H](C)NC(=O)c1cc2c(cn1)[nH]c1ccccc12,inconclusive: 24%
7,CCC(=O)Nc1ccc2c(c1)OC[C@@H](C)N(Cc1cccnc1)C[C@H](C)[C@@H](OC)CN(C)C2=O,active: 47.7%
8,COc1ccc(N2CCN(C(=O)c3c(-c4c(F)cccc4Cl)noc3C)CC2)cc1,inconclusive: 25.6%
9,CO[C@@H]1CN(C)C(=O)c2ccc(NC(=O)Nc3cccc(F)c3)cc2OC[C@H](C)NC[C@H]1C,inactive: -3.8%
10,C[C@H](O)C#Cc1cnc2c(c1)C(=O)N([C@@H](C)CO)C[C@@H](C)[C@@H](CN(C)C(=O)c1ccncc1)O2,inconclusive: 21.7%
11,CC(C)CC#Cc1cnc2c(c1)C(=O)N([C@@H](C)CO)C[C@H](C)[C@H](CN(C)C(=O)c1ccc3c(c1)OCO3)O2,inactive: -13.3%
12,COc1ccc(CNC(=O)C[C@@H]2CC[C@H]3[C@@H](COc4ccc(NC(=O)C(C)C)cc4C(=O)N3C)O2)cc1,inconclusive: 31.7%
13,O=C(O)c1cccc(Br)c1,inconclusive: 35.4%
14,Cc1ccc(OCc2cc(C(=O)N3CCCCCCC3)no2)cc1C,inconclusive: 24%
15,COC(=O)c1c(-c2ccc(OC)cc2)c2c(c3c4cc(OC)ccc4n(S(=O)(=O)c4ccc(C)cc4)c13)C(=O)N(C)C2,inconclusive: 26.7%
16,O=C(NCCc1ccccc1)c1ccccc1NC(=O)C1CCCCC1C(=O)O (stereo not drawn),active: 44.2%
17,CN(C)CCCN(C(=O)c1ccco1)c1nc(-c2ccc(Cl)cc2)cs1,inactive: -1.46%
18,COCCn1nnnc1C(c1ccccc1)N1CCN(C(=O)c2ccco2)CC1 (stereo not drawn),inconclusive: 26.1%
19,C[C@H](CO)N1C[C@H](C)[C@H](CN(C)C(=O)Nc2ccc(C(F)(F)F)cc2)Oc2ccc(NC(=O)CCC(F)(F)F)cc2C1=O,inactive: 5.61%
20,COCC#Cc1ccc2c(c1)O[C@@H](CN(C)S(=O)(=O)c1cccc(OC)c1)[C@@H](C)CN([C@@H](C)CO)S2(=O)=O,inactive: 2.86%
21,Cc1noc(C)c1S(=O)(=O)Nc1ccc2c(c1)C(=O)N([C@H](C)CO)C[C@H](C)[C@H](CN(C)Cc1ccccc1)OCCCC[C@@H](C)O2,inconclusive: 35.2%
22,CCCS(=O)(=O)c1c(S(=O)(=O)CCC)c2ccc(C(N)=O)cn2c1C(=O)c1ccc(F)cc1,inactive: 1.36%
23,CNC(=O)C[C@H]1CC[C@H]2[C@H](COc3ccc(NC(=O)Nc4cc(C)cc(C)c4)cc3C(=O)N2C)O1,active: 46.2%

# 4 entries picked at random from the list so far:
row,Structure (SMILES),CPE inhibition
12,C[C@@H]1CN([C@H](C)CO)C(=O)Cc2cc(NC(=O)Nc3cccc4ccccc34)ccc2O[C@@H]1CN(C)CC1CC1,inactive: -3.64%
22,CCCS(=O)(=O)c1c(S(=O)(=O)CCC)c2ccc(C(N)=O)cn2c1C(=O)c1ccc(F)cc1,inactive: 1.36%
5,Cc1ccccc1CC(=O)Nc1ccc(C(=O)N2CCCC2)cc1,inconclusive: 46.1%
10,C[C@H](O)C#Cc1cnc2c(c1)C(=O)N([C@@H](C)CO)C[C@@H](C)[C@@H](CN(C)C(=O)c1ccncc1)O2,inconclusive: 21.7%

# Further entries.

row,Structure (SMILES),CPE inhibition
1,COc1ccc2c3c(n(C)c2c1)[C@H](CO)N(C(=O)C1CC1)CC31CCN(C(=O)Nc2cccc(F)c2)CC1,inactive: -4.19%
2,COc1ccc(S(=O)(=O)N(C)C[C@H]2Oc3ccc(NS(=O)(=O)c4cn(C)cn4)cc3CC(=O)N([C@H](C)CO)C[C@@H]2C)cc1,inactive: 5.31%
3,CC(C)=NOCC(=O)Nn1c(COc2c(C)cccc2C)nc2ccccc2c1=O,inconclusive: 23.4%
4,CCCN1C[C@@H](C)[C@@H](OC)CN(C)C(=O)c2ccc(NC(=O)CC(F)(F)F)cc2OC[C@H]1C,inactive: 1.09%
5,CC(C)C[C@H]1CN([C@@H](Cc2ccccc2)CN2CCC[C@@H]2CN2C(=O)C(=O)NC[C@@H]2Cc2ccc(O)cc2)C(=O)C(=O)N1CC1CCCCC1,inconclusive: 33.8%
6,C[C@@H]1CCCCO[C@H](CN(C)C(=O)Nc2ccc3c(c2)OCO3)[C@@H](C)CN([C@H](C)CO)C(=O)c2cc(NS(=O)(=O)c3ccc(Cl)cc3)ccc2O1,active: 25.3%
7,Cc1ccc([C@@H]2CC=C(C(=O)O)[C@H](c3cccc(Cl)c3)N2S(=O)(=O)c2ccc(C)cc2)cc1,active: 42.3%
8,O=C(Nc1cccc(C(F)(F)F)c1)C1CC(=O)N(Cc2ccco2)C1 (stereo not drawn),inconclusive: 28.4%
9,COc1ccc(NC(=O)Nc2ccc3c(c2)[C@H]2C[C@H](CC(=O)O)O[C@H](CO)[C@H]2O3)cc1,inactive: 6.92%
10,O=C(CCc1nnc(CCCc2ccccc2)o1)NCCCC1CCCC1,inactive: -2.26%
11,COc1ccc(NC(=O)CN(C)C(=O)c2ccc(S(=O)(=O)Nc3ccccc3F)cc2)cc1,inconclusive: 41.1%
12,C/C(=N\Nc1nc2ccccc2[nH]1)c1ccc([N+](=O)[O-])cc1,inactive: -1.12%
13,COc1ccc2c3c([nH]c2c1)[C@H](CO)N(C(=O)C1CC1)CC31CN(Cc2cccc(F)c2)C1,inactive: -6.71%
14,CN1CCN(C2CN(Cc3cn(Cc4ccccc4)nn3)S(=O)(=O)C2)CC1 (stereo not drawn),inconclusive: 57.8%
15,CCCCNC(=O)[C@@H]1CC=C[C@@H]2CCN(Cc3ccc(Cl)c(Cl)c3)C(=O)[C@@H]21,inconclusive: 21.1%
16,O=C(C[C@@H]1C=C[C@@H](NS(=O)(=O)c2ccc(F)cc2)[C@H](CO)O1)NC1CCC1,inactive: -11.4%
17,Cc1ccc(C(=O)OCC(=O)N2CCCc3ccccc32)cc1C,inconclusive: 33.6%
18,C[C@@H]1CN([C@H](C)CO)C(=O)c2cc(NS(=O)(=O)c3ccc(F)cc3)ccc2O[C@@H]1CN(C)S(=O)(=O)c1ccc(F)cc1,inconclusive: 45.5%
19,CCCN(C)C[C@@H]1Oc2cc(C#Cc3ccncc3)ccc2S(=O)(=O)N([C@H](C)CO)C[C@@H]1C,inactive: -7.32%
20,C[C@@H]1CN([C@H](C)CO)C(=O)Cc2cc(NC(=O)Cn3cnnn3)ccc2O[C@@H]1CN(C)S(=O)(=O)c1cn(C)cn1,inconclusive: 29.1%
21,O=C(N/N=C/c1cccc(O)c1)NC1CCCCC1,inactive: 3.05%
22,COc1ccc(CNC(=O)COc2ccc(S(=O)(=O)N3CCCCC3)cc2)cc1,inconclusive: 35.3%
